This assay concerns the target T1, BRD-1::tag (C. elegans) (UniProt Q21209).
T1 sequence: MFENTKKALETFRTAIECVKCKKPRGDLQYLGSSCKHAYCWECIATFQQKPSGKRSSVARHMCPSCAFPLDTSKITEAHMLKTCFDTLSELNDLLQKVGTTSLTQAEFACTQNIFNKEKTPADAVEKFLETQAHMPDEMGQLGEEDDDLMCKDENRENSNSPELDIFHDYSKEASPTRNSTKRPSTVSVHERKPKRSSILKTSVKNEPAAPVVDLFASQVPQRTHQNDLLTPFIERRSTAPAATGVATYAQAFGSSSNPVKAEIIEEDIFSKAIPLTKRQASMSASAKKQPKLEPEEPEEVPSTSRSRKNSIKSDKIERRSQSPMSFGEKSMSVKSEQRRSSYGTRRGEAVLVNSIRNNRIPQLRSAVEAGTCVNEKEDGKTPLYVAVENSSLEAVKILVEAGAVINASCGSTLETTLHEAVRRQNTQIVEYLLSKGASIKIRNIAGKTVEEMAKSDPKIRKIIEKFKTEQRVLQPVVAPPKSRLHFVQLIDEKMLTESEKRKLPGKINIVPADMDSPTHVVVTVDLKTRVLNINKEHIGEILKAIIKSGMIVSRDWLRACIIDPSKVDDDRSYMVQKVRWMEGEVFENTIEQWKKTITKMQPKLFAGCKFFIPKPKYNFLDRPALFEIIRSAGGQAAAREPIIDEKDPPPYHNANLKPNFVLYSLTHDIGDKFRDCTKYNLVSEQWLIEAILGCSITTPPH
Briefly: co-IP; tandem immunoaffinity purification of the native CeBCD complex from dwIs3 worms (HA then Myc antibody columns, TEV elution), Western blot; soluble (S) and chromatin-bound (C) fractions, untreated and 12 h after 75 Gy IR; mock purification as control.

Results are given in words; binding and its absence hold for the method and conditions named. Binding seen in cells or lysates may run through a third protein. Some results given as binding are weak or reduced against the parent protein; the word gives no strength. Tags and fused reporters may be left off the sequences shown.

B1: BRC-1 (protein, UniProt B6VQ60 1-609)
chain: MADVALRITETVARLQKELKCGICCSTYKDPILSTCFHIFCRSCINACFERKRKVQCPICRSVLDKRSCRDTYQITMAVQNYLKLSEAFKKDIENMNTFKSLPPEKMFMESQMPLDITIIPENDGKRCAPDFAIPFLPVRRKRPSRPQPPSAFAEEPAEPVEPPEPATKQPVELQSRVFPLEKLKKDVETSTETYKISREELKNVDIEEYINTLRENSTEIDEIDALFQLMPTMRQFLRNNINQLMEKFHVAPPKKSEKPANRRVSFASSQDLENIKIMTASESLETPPEPIQKLAQKPEVFKSTQNLIDLNLNTAVKKPVVVASDDDEVVEDSEGELQIDEDDLANVTCATSSTTLDADRTPKAIQDDEDRIDDELSQVPKTIVCSRIHNDADEVELLSDFYHKFLSNACRFAEDVNEHTTHLVMMNSEGRSISQKSTAYLYAIARKCVIVGRQWLVDCITTGLLLSEADYTITSCSSTIPVKIPPSIGSEMGWLRSRNDEHGKLFAGRRFMILRKFTMNPYFDYKQLIELVQQCGGEILSCYENLSPEKLYIIFSKHSKAIEESKNIENLYKCDVVTMEWVLDSISEYLILPTQPYKAVDSIGCLQD
On to B1, for which the binding entry is “binds”.

Values taken from paper PMC6334227.
